Measurements from publication PMC3335848, “Characterization of Multi-Functional Properties and Conformational Analysis of MutS2 from Thermotoga maritima MSB8” (PLoS ONE, 2012).
The comparison behind a weaker result is the experiment's own reference, which may not be listed here. Tags and fusion partners may be left off the protein sequences shown. Construct, isoform or probe ends are uncertain for at least one entry. At least one verdict rests on a figure or table, not on a statement of the authors.

Biological target: T1, TmMutS2 (Thermotoga maritima MSB8) (UniProt Q9X105)
T1 sequence (looked up): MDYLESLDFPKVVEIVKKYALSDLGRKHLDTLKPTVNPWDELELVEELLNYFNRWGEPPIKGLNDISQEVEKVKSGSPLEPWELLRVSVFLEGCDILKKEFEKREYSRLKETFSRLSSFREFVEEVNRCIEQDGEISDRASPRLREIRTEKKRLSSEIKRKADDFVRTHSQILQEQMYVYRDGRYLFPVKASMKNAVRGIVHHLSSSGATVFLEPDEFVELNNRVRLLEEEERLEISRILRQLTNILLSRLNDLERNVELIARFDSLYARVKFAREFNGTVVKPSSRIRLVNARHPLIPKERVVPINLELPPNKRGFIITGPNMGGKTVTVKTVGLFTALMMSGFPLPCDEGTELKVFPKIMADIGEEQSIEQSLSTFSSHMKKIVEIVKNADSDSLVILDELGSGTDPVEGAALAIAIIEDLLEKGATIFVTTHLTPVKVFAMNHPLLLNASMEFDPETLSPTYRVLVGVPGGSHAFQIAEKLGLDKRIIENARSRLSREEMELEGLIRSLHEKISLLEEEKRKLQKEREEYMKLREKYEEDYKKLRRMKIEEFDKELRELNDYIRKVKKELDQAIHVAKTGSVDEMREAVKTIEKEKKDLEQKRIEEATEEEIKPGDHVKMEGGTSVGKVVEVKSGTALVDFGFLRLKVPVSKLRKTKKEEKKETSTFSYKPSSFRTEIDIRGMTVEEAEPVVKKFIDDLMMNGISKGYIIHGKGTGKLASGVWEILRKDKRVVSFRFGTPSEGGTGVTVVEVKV
Experiment: EMSA
Conditions: EMSA: 25 mM Hepes-NaOH pH 7.5, 200 mM NaCl, 0.5 mM EDTA, 37 C, 1 h, DNA 1 uM, TmMutS2 0-2 uM, recombinant protein

[1] = 1 mM ATP, 2 uM protein, residues 1-757, protein details: His-tag removed with TEV protease (pET-28aTEV), label: 5'-32P
[2] = no ATP, +/- 1 mM ATP, residues 1-757, protein details: His-tag removed with TEV protease (pET-28aTEV), label: 5'-32P

Sequence | binding result [1] | binding result [2] | binding result (1 mM ATP, 2 uM protein, residues 1-757, protein details: His-tag removed with TEV protease (pET-28aTEV), label: 5'-32P, folded or branched DNA) | binding result (1 mM ATP, 2 uM protein, residues 1-757, protein details: His-tag removed with TEV protease (pET-28aTEV), label: 5'-32P (EMSA), folded or branched DNA)
ACAGCACCAGATTCAGCAATTAAGCTCTAAGCCATCCGCAAAAATGACCTCTTATCAAAAGG / TCCTTTTGATAAGAGGTCATTTTTGCGGATGGCTTAGAGCTTAATTGC [5'-overhang (DNA 2)] | binds more weakly | binds more weakly | – | –
AACGGCATAAAGCTTGACGATTACATTGCTAGGACATGCTGTCTAGAGGATCCGACTATCGA / TGGGTGAACCTGCAGGTGGGCAAAGATGTCCTAGCAATGTAATCGTCAAGCTTTATGCCGTT [Flayed (DNA 4, fork)] | – | – | binds more weakly | –
ACAGCACCAGATTCAGCAATTAAGCTCTAAGCCATCCGCAAAAATGACCTCTTATCAAAAGG / CCTTTTGATAAGAGGTCATTTTTGCGGATGGCTTAGAGCTTAATTGCTGAATCTGGTGGCTGT [Blunt duplex (DNA 1, linear)] | binds more weakly | binds more weakly | – | –
GACGCTGCCGAATCCTACCAGTGCCTTGCTAGGACATCTTTGCCCACCTGCAGGTCACCC / TGGGTGAACCTGCAGGTGGGCAAAGATGTCCTAGCAATGTAATCGTCAAGCTTTATGCCGTT / ATCGATAGTCGGATCCTCTAGACAGCATGTCCTAGCAAGGCACTGGTAGAATTCGGCAGCGT / CAACGGCATAAAGCTTGACGATTACATTGCTAGGACATGCTGTCTAGAGGATCCGACTATCGA [Four-way junction (FWJ, DNA 3)] | – | – | – | binds more weakly
